Where two headings read alike, the source gives them in different places. Some of these results come from one statement about several compounds together.
What was measured:
Plasmopara viticola [1] = experiment: Plasmopara viticola/Grape/Long Lasting (Grape Downy Mildew); format: in vivo; conditions: 200 ppm; grape seedlings cv. Gutedel, inoculated 6 days after application, assessed 11-13 days after application
Phytophthora infestans [2] = format: in vivo; conditions: 200 ppm; potato plants cv. Bintje, inoculated 2 days after application, assessed 5-7 days after application
Phytophthora infestans [3] = format: in vivo; conditions: 200 ppm; potato plants cv. Bintje, inoculated 6 days after application, assessed 9-11 days after application
Phytophthora infestans [4] = format: in vivo; conditions: 200 ppm; potato plants cv. Bintje, inoculated one day before application, assessed 3-4 days after application
Plasmopara viticola [5] = experiment: Plasmopara viticola/Grape/Curative (Grape Downy Mildew); format: in vivo; conditions: 200 ppm; grape seedlings cv. Gutedel, inoculated one day before application, assessed 4-6 days after application
Plasmopara viticola [6] = experiment: Plasmopara viticola/Grape/Preventative (Grape Downy Mildew); format: in vivo; conditions: 200 ppm; grape seedlings cv. Gutedel, inoculated one day after application, assessed 6-8 days after application
Phytophthora infestans [7] = format: in vivo; conditions: 200 ppm; tomato leaf disks, inoculated 1 day after application, assessed 5-7 days after application
Plasmopara viticola [8] = experiment: Plasmopara viticola/Grape/Leaf Disc Preventative (Grape Downy Mildew); format: in vivo; conditions: 200 ppm; grape vine leaf disks, inoculated 1 day after application, assessed 6-8 days after application
Procedure: Plasmopara viticola/Grape/Leaf Disc Preventative (Grape Downy Mildew)
Grape vine leaf disks are placed on water agar in multiwell plates (24-well format) and sprayed with the formulated test compound diluted in water. The leaf disks are inoculated with a spore suspension of the fungus 1 day after application. The inoculated leaf disks are incubated at 19° C. and 80% rh under a light regime of 12 h light/12 h darkness in a climate cabinet and the activity of a compound is assessed as percent disease control compared to untreated when an appropriate level of disease damage appears in untreated check leaf disks (6-8 days after application).

Pythium ultimum [9] = experiment: Pythium ultimum/Cotton/Soil Drench (Seedling Damping Off); format: in vivo; conditions: 200 ppm; cotton cv. Sure Grow 747, soil drench directly after sowing, assessed 13-16 days after application
Pythium ultimum [10] = experiment: Pythium ultimum/Liquid Culture (Seedling Damping Off); format: cell-based; conditions: 200 ppm; liquid culture in PDB, 96-well plate, growth inhibition read photometrically 2-3 days after application

Measured: disease control

Cc1cc(C(F)(F)F)nn1CC(=O)N1CCC(c2nc(NC(=O)[C@@H]3CCCc4ccccc43)cs2)CC1 [I.g.001, (R)-1,2,3,4-tetrahydro-naphthalene-1-carboxylic acid (2-{1-[2-(5-methyl-3-trifluoromethyl-pyrazol-1-yl)-acetyl]-piperidin-4-yl}-thiazol-4-yl)amide]
at least 80%: Plasmopara viticola [1] | Phytophthora infestans [2] | Phytophthora infestans [3] | Phytophthora infestans [4] | Plasmopara viticola [5] | Plasmopara viticola [6]

Cc1cc(C(F)(F)F)nn1CC(=O)N1CCC(c2nc(NC(=O)C3CCCc4ccccc43)cs2)CC1 (stereo not shown) [I.g.011, 1,2,3,4-tetrahydro-naphthalene-1-carboxylic acid (2-{1-[2-(5-methyl-3-trifluoromethyl-pyrazol-1-yl)-acetyl]-piperidin-4-yl}-thiazol-4-yl)amide]
at least 80%: Plasmopara viticola [1] | Phytophthora infestans [2] | Phytophthora infestans [3] | Phytophthora infestans [4] | Plasmopara viticola [5] | Plasmopara viticola [6]

Cc1cc(C(F)(F)F)nn1CC(=O)N1CCC(c2nc(NC(=O)C(C)c3ccccc3)cs2)CC1 (stereo not shown) [I.g.016]
at least 80%: Phytophthora infestans [2] | Phytophthora infestans [7] | Phytophthora infestans [3] | Plasmopara viticola [8] | Plasmopara viticola [6]

Cc1cc(C(F)(F)F)nn1CC(=O)N1CCC(c2nc(NC(=O)c3ccccc3)cs2)CC1 [I.g.021]
at least 80%: Phytophthora infestans [7] | Plasmopara viticola [8]

Cc1cc(C(F)(F)F)nn1CC(=O)N1CCC(c2nc(NC(=O)Oc3ccccc3)cs2)CC1 [I.g.023]
not listed: Pythium ultimum [9] | Pythium ultimum [10]
at least 80%: all other assays above

Cc1cc(C(F)(F)F)nn1CC(=O)N1CCC(c2nc(NC(=O)Nc3ccccc3)cs2)CC1 [I.g.024, 1-(2-{1-[2-(5-methyl-3-trifluoromethyl-pyrazol-1-yl)-acetyl]-piperidin-4-yl}-thiazol-4-yl)-3-phenyl-urea]
at least 80%: Plasmopara viticola [1] | Phytophthora infestans [2] | Phytophthora infestans [3] | Plasmopara viticola [6]

Cc1ccc(C)c(CC(=O)N2CCC(c3nc(NC(=O)C4CCCc5ccccc54)cs3)CC2)c1 (stereo not shown) [I.g.136, 1,2,3,4-tetrahydro-naphthalene-1-carboxylic acid (2-{1-[2-(2,5-dimethylphenyl)-acetyl]-piperidin-4-yl}-thiazol-4-yl)-amide]
at least 80%: Phytophthora infestans [2]

Cc1cc(C(F)(F)F)nn1CC(=O)N1CCC(c2nc(NC(=O)c3cccc(F)c3O)cs2)CC1 [I.g.501, 3-fluoro-2-hydroxy-N-(2-{1-[2-(5-methyl-3-trifluoromethyl-pyrazol-1-yl)-acetyl]-piperidin-4-yl}-thiazol-4-yl)-benzamide]
at least 80%: Plasmopara viticola [1] | Phytophthora infestans [2] | Phytophthora infestans [3] | Pythium ultimum [9] | Pythium ultimum [10] | Plasmopara viticola [6]

Cc1cc(C(F)(F)F)nn1CC(=O)N1CCC(c2nc(NC(=O)c3cccc(Br)c3O)cs2)CC1 [I.g.502, 3-bromo-2-hydroxy-N-(2-{1-[2-(5-methyl-3-trifluoromethyl-pyrazol-1-yl)-acetyl]-piperidin-4-yl}-thiazol-4-yl)-benzamide]
at least 80%: Plasmopara viticola [1] | Phytophthora infestans [2] | Phytophthora infestans [3] | Pythium ultimum [9] | Pythium ultimum [10] | Plasmopara viticola [6]

Cc1cc(C(F)(F)F)nn1CC(=O)N1CCC(c2nc(NC(=O)c3ccccc3O)cs2)CC1 [I.g.503, 2-hydroxy-N-(2-{1-[2-(5-methyl-3-trifluoromethyl-pyrazol-1-yl)-acetyl]-piperidin-4-yl}-thiazol-4-yl)-benzamide]
at least 80%: Pythium ultimum [10] | Plasmopara viticola [6]

COc1cccc(C(=O)Nc2csc(C3CCN(C(=O)Cn4nc(C(F)(F)F)cc4C)CC3)n2)c1O [I.g.511, 3-methoxy-2-hydroxy-N-(2-{1-[2-(5-methyl-3-trifluoromethyl-pyrazol-1-yl)-acetyl]-piperidin-4-yl}-thiazol-4-yl)-benzamide]
at least 80%: Phytophthora infestans [2] | Pythium ultimum [9] | Pythium ultimum [10]
